From article PMC4682037, “Signal transduction in light–oxygen–voltage receptors lacking the adduct-forming cysteine residue” (Nature Communications, 2015)
Negatives hold for the conditions tested. For at least one entry, the source does not settle the construct or the ends of the probe. The comparison behind a weaker result is the experiment's own reference, which may not be listed here.

Biological target: FixJ (phosphorylated by YF1 variants in situ) (UniProt P23221)
Assay: EMSA
Details: 1 mM ATP, 10 mM HEPES pH 8.0 (200 mM for C62A variants, plus glucose oxidase/glucose/catalase), 80 mM KCl, 2.5 mM MgCl2, 0.1 mM EDTA, 100 ug/ml BSA, 10% glycerol, recombinant protein, residues 1-205, protein details: N-terminal His6 (not cleaved), label: 5'-TAMRA on forward strand

## GAGCGATATCTTAAGGGGGGTGCCTTACGTAGAACCC (double strand) [FixK2 promoter DNA]
YF1 C62A, blue light, ROS scavenger, small portion in complex
  binding result: binds more weakly
YF1 C62A, dark, ROS scavenger
  binding result: binds
YF1 H22P, blue light
  binding result: binds
YF1 H22P, dark
  binding result: no binding
YF1 H22P:C62A, blue light, with ROS scavenger (catalase, glucose, glucose oxidase)
  binding result: binds
YF1 H22P:C62A, blue light, without ROS scavenger
  binding result: no binding
YF1 H22P:C62A, dark
  binding result: no binding
YF1 WT, blue light (FixJ dephosphorylated)
  binding result: no binding
YF1 WT, dark (phospho-FixJ)
  binding result: binds
